No constants are given. Whether binding was seen depends on the method and setting. In cells and extracts the contact can be indirect. Binding can be weak; no strength is given.
Biological target: HA-tagged TRAF6 (human) (UniProt Q9Y4K3)
Test: co-IP; 293 cells co-transfected with HA-TRAF6 and pCR3.1 tetherin constructs; lysed 48 h later in 1% digitonin, 50 mM Tris-HCl pH 7.4, 150 mM NaCl with protease inhibitors and N-ethylmaleimide; postnuclear supernatant precipitated with anti-HA.11 mAb and protein G agarose; blot with anti-HA and anti-BST2

Protein sequences, listed by entry. Tags and fused reporters are not part of them.
UniProt Q9Y4K3: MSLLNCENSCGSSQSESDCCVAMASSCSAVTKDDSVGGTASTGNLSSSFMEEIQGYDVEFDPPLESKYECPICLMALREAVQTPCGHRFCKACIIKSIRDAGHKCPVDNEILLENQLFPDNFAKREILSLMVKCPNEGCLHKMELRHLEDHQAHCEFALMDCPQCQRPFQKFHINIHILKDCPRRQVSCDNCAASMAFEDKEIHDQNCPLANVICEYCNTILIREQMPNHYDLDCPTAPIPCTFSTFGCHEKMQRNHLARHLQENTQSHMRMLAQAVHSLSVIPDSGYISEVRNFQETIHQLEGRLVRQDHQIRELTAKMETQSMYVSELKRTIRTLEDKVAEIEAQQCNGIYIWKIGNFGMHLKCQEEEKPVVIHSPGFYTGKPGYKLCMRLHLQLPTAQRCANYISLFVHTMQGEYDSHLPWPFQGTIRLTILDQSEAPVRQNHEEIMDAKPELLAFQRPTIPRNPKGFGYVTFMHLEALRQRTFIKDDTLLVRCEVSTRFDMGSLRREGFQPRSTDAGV

## chimpanzee tetherin with the DDIWK motif deleted (from UniProt D7RVC2)
  binding: binds

## chimpanzee tetherin (from UniProt D7RVC2)
  binding: binds
